Some of the results follow. Most entries show no effect beyond the scatter of the controls.
Compound: CN[C@@H]1C[C@H]2O[C@@](C)([C@@H]1OC)n1c3ccccc3c3c4c(c5c6ccccc6n2c5c31)C(=O)NC4 [staurosporine]
Assay: log2 fold change of tryptic peptide abundance, ligand vs vehicle (limited proteolysis) (log2 ratio); higher = more trypsin-susceptible (destabilized)
Conditions: ligand concentration: 20 uM; sample: mouse liver crude lysate; replicate design: treated separately

Sequences of proteins named here, by UniProt entry; tags and fusion partners are left off. A change or cut given only in a name is not applied to a line headed by its entry.
UniProt Q9D4V0: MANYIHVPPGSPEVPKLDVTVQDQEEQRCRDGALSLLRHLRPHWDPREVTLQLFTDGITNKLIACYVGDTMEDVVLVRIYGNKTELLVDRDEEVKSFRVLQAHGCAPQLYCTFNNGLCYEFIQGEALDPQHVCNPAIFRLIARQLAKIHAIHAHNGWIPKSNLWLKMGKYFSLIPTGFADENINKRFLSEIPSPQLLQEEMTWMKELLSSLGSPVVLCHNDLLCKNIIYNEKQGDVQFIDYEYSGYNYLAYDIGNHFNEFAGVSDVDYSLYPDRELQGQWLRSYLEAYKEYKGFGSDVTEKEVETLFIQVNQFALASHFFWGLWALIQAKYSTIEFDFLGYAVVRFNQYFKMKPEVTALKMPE
UniProt Q9D4V7: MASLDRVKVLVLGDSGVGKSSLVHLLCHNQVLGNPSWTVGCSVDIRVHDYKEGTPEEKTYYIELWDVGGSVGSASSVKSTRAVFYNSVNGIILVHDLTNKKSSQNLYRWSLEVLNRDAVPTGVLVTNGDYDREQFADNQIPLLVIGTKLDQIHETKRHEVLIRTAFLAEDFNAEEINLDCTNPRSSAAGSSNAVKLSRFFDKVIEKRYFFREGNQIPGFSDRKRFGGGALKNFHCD
UniProt Q9D2R8: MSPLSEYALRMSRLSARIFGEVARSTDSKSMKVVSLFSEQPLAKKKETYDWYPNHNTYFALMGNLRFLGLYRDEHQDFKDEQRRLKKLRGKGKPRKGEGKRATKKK
UniProt Q9D2Q2: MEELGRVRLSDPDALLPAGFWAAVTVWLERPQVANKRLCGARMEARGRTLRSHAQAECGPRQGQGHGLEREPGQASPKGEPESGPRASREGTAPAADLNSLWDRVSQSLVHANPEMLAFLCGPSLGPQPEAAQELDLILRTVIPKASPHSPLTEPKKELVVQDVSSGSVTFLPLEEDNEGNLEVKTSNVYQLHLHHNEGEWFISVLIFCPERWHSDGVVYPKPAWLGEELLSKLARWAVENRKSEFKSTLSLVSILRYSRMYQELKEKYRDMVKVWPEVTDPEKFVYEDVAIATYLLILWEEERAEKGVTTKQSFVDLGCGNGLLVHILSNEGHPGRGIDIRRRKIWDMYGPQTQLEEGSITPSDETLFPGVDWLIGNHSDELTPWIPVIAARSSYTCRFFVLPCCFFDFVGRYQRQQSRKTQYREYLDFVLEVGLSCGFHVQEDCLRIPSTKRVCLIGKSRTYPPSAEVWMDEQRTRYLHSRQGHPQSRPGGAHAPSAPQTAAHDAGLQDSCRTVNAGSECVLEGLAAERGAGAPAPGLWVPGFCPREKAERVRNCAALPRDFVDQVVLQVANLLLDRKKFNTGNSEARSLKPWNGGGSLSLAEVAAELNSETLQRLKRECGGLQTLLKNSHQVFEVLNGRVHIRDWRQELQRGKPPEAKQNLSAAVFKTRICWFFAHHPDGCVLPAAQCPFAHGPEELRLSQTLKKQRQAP
UniProt Q9D6K7: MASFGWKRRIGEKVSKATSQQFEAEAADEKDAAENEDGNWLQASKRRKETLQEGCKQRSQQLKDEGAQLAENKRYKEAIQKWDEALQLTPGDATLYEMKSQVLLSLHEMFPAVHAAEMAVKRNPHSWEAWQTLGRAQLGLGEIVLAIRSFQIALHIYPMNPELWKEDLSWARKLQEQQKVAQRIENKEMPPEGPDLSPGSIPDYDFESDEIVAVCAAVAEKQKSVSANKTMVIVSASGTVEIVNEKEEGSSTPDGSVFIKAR

| Target | log2 fold change |
| --- | --- |
| UniProt Q9D4V0 (peptide sequence: IYGNKTELLVDRDEEVK, peptide start residue: 79) | -0.0644 |
| UniProt Q9D4V7 (peptide sequence: AVFYNSVNGIILVHDLTNKK, peptide start residue: 82) | -0.344 |
| UniProt Q9D2R8 (peptide sequence: SPLSEYALR, peptide start residue: 2) | -0.175 |
| UniProt Q9D2Q2 (peptide sequence: NSHQVFEVLNGR, peptide start residue: 631) | 0.287 |
| UniProt Q9D6K7 (peptide sequence: KETLQEGCKQR, peptide start residue: 48) | -0.737 |
